Source: US8440424B2, “Identification of antibiotic resistance using labelled antibiotics” (miacom Diagnostics GmbH, priority 2008, dated 2013)
For at least one compound, name, drawing or mass did not settle the structure.

Tested on: Community acquired MRSA (CA-MRSA)
Parameters: species or system Staphylococcus aureus
Settings: binding capacity for the labelled antibiotic

For `CCC[C@@H]1C[C@@H](C(=O)N[C@@H]([C@H]2O[C@H](SC)[C@H](O)[C@@H](O)[C@H]2O)[C@H](C)Cl)N(C)C1` [clindamycin, Clindamycin, reference compound], the “Effect of resistance on fluorescence” value was “Maintaims binding”.
